Data: patent US5948887A, “Polypeptides that include conformation-constraining groups which flank a protein--protein interaction site” (Virginia Commonwealth University, priority 1997, dated 1999)
Not every detail of the peptide structures is certain; ends, links or a residue may be inferred. Where a SMILES comes first, the peptide text is derived from it.

Tested on: platelet aggregation
Assay: Inhibition of platelet aggregation initiated by collagen or ADP
Format: cell-based

CC[C@H](C)[C@H](N)C(=O)N[C@@H](C)C(=O)N[C@@H](CCCNC(=N)N)C(=O)NCC(=O)N[C@@H](CC(=O)O)C(=O)N[C@@H](CCSC)C(=O)N[C@@H](CC(N)=O)C(=O)N[C@@H](C)C(=O)O [Peptide P-1, Ile-Ala-Arg-Gly-Asp-Met-Asn-Ala] (H-IARGDMNA-OH)
inhibitory potency compared with the Arg-Gly-Asp-Ser peptide: comparable with that of the Arg-Gly-Asp-Ser peptide
